Reference: PMC3621835
These are yes or no findings as the source states them, for the method shown. In cells and extracts the contact can be indirect. Binding calls can cover weak binding; strength is not graded here.

Amino acid sequences for entries named in this document (tags omitted). A change or cut given only in a name is not applied to a line headed by its entry. Residues count along the entry.
UniProt P15253: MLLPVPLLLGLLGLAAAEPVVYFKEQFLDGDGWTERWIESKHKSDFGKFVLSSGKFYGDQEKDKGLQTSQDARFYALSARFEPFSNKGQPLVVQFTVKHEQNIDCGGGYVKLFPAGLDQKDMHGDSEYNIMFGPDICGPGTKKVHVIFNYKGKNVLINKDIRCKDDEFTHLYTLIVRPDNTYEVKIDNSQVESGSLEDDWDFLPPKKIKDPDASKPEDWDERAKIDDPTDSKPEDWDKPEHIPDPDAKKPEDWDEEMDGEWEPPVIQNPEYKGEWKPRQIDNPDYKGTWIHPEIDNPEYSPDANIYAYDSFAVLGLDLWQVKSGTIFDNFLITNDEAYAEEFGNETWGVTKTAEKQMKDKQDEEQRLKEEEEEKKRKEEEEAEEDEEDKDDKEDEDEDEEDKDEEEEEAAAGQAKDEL
UniProt Q92542, residues 34-709: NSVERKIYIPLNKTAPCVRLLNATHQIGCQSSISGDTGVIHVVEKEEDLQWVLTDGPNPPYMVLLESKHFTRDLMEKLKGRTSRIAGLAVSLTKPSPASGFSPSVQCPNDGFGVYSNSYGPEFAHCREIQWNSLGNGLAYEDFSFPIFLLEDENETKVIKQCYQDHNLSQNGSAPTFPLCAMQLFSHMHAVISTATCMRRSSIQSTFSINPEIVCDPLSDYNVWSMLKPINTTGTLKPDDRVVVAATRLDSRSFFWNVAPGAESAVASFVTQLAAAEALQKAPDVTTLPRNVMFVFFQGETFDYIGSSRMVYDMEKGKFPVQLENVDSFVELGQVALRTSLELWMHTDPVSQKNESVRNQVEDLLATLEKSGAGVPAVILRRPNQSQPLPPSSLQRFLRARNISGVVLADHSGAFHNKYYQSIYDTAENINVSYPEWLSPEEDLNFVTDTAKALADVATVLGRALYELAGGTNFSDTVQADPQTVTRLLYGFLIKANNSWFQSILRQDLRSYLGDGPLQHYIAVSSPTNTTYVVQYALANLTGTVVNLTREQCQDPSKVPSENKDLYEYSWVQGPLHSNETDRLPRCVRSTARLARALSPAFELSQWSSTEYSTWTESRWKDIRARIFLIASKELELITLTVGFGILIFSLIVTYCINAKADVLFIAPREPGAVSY

Biological target: GST fusion protein comprising the calreticulin C-domain (amino acid 330–401) (rabbit) (UniProt P15253)
Assay: pull-down; GST or GST-calreticulin fusion proteins on glutathione-agarose beads with solubilized membranes of HEK cells overexpressing presenilin, overnight at 4°C; Western blot with presenilin antibody 2953 or nicastrin antibody; only the target purified

Q: “nicastrin (HEK cells overexpressing presenilin) (from UniProt Q92542 34-709)” was tested. Which binding did it give?
A: binds
